Values from PubChem BioAssay AID504793 (Drosophila RNAi Screening Center, 2011).

Assay: 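Genes required for cells to halt at G2/M after double-strand DNA breaks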 (primary screen)
System: Drosophila S2R+ cells
Reagents: long dsRNA against Drosophila genes, about 0.25 µg dsRNA per well
Duration: 4 days of dsRNA, then 4 hours of drug before read-out
Conditions: doxorubicin 0.5 µM for 4 hours to cause double-strand breaks, in cells also given a low, harmless dose of dsRNA against nbs to sensitise the assay
Read-out: 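Per-well count of mitotic cells stained for phospho-histone H3 after doxorubicin exposure, used as mitotic index; counts are raw and not normalised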
Scale: mitotic cells: higher = more cells in mitosis, weaker G2 arrest
Rule for the call: 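Genes are called active only when high mitotic counts were reproduced with independent dsRNAs and mitosis was checked for delay without damage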
Meaning of the calls: active = confirmed in follow-up tests; inactive = not confirmed
The deposit covers about 23,000 reagents; shown is an unselected part of those with a known target gene and a result. Over the whole deposit, 62 (0.27%) were called active. 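Calls come from follow-up tests whose scores are not deposited, so confirmed genes may have low counts here; counts are not normalised per plate.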 Raw values are not corrected between plates. Unmarked entries are inactive. A plus sign joins genes that one reagent is predicted to hit. Reagent sequences are not shown.

For CG42390 [DRSC23064], the values are mitotic cells, replicate 1 = 20. After knock-down of CG42390 [DRSC23065] the results were mitotic cells, replicate 1 = 14. With knock-down of CG13321 [DRSC06358], the record shows mitotic cells, replicate 1 = 4. CG13321 [DRSC27458] gave mitotic cells, replicate 1 = 6. CG9452 [DRSC11075] showed mitotic cells, replicate 1 = 4. With knock-down of CG9452 [DRSC23344] the results were mitotic cells, replicate 1 = 13.

With knock-down of CG5731 [DRSC02883] the results were mitotic cells, replicate 1 = 10. Against CG5731 [DRSC25969], the values are mitotic cells, replicate 1 = 9. CG10097 + CG10096 [DRSC14189] showed mitotic cells, replicate 1 = 5. After knock-down of CG10097 + CG10096 [DRSC14190], the screen gave mitotic cells, replicate 1 = 3. After knock-down of CG18095 [DRSC01948] the results were mitotic cells, replicate 1 = 8.

Part of the list above, reformatted:
{"Gene":"CG5731","dsRNA":"DRSC25969","mitotic cells, replicate 1":9}
{"Gene":"CG10097 + CG10096","dsRNA":"DRSC14189","mitotic cells, replicate 1":5}

Continued:
Silencing of CG42674 [DRSC10066] came out at: mitotic cells, replicate 1 = 5. CG42674 [DRSC10067] showed mitotic cells, replicate 1 = 5. Silencing of CG42674 [DRSC10811] came out at: mitotic cells, replicate 1 = 4. Against CG42674 [DRSC25036], the values are mitotic cells, replicate 1 = 8. CG42674 [DRSC29701] scored mitotic cells, replicate 1 = 5. Depletion of CG34112 [DRSC12235] came out at: mitotic cells, replicate 1 = 3.

CG32023 [DRSC08946] scored mitotic cells, replicate 1 = 12. CG11674 [DRSC19414] gave mitotic cells, replicate 1 = 4. Depletion of Ca-alpha1T (Ca[2+]-channel protein alpha[[1]] subunit T) [DRSC17842] resulted in: mitotic cells, replicate 1 = 11. Silencing of Ca-alpha1T (Ca[2+]-channel protein alpha[[1]] subunit T) [DRSC18103] gave: mitotic cells, replicate 1 = 6. Depletion of Ca-alpha1T (Ca[2+]-channel protein alpha[[1]] subunit T) [DRSC18356] came out at: mitotic cells, replicate 1 = 11. Silencing of Ca-alpha1T (Ca[2+]-channel protein alpha[[1]] subunit T) [DRSC18357] gave: mitotic cells, replicate 1 = 16.

With knock-down of Ca-alpha1T (Ca[2+]-channel protein alpha[[1]] subunit T) [DRSC21430], the record shows mitotic cells, replicate 1 = 7. For Dbp80 (Dead box protein 80) [DRSC22034], the entry reads mitotic cells, replicate 1 = 13. After knock-down of Spn42De (Serpin 42De) [DRSC05011] the results were mitotic cells, replicate 1 = 4. Spn42De (Serpin 42De) [DRSC28039] gave mitotic cells, replicate 1 = 6. For maca [DRSC15738], the entry reads mitotic cells, replicate 1 = 5. Depletion of CG17564 [DRSC02626] came out at: mitotic cells, replicate 1 = 4.

Knock-down of CG17564 [DRSC26542] came out at: mitotic cells, replicate 1 = 6. Knock-down of CG12680 [DRSC17871] came out at: mitotic cells, replicate 1 = 14. After knock-down of CG13982 [DRSC02314] the results were mitotic cells, replicate 1 = 10. Against term (terminus) [DRSC21730] the deposit lists mitotic cells, replicate 1 = 6. After knock-down of ida (imaginal discs arrested) [DRSC08163], the record shows mitotic cells, replicate 1 = 101.
